From publication PMC9321335, “Palmitic Acid-Conjugated Radiopharmaceutical for Integrin αvβ3-Targeted Radionuclide Therapy” (Pharmaceutics, 2022)

Legend:
Biodistribution study = details: C57BL/6, mouse, in vivo, 0.74 MBq, total radioactivity
Description: Mice bearing MC38 xenografts were randomly divided into 10 groups (n = 4). The mice in five groups were administered 0.74 MBq/20 µCi of ^177Lu-Palm-3PRGD2 and sacrificed at 1, 4, 12, 24, and 72 h p.i. The mice on one group was injected with 0.74 MBq/20 µCi of ^177Lu-Palm-3PRGD2 and 500 μg (242 nmol) 3PRGD2 as a blocking agent and sacrificed at 1 h p.i. […] Tumors and major organs were harvested, weighed and measured for radioactivity using a γ-counter. The organ uptake was calculated as the percentage injected activity per gram (%IA/g). The effective absorbed dose in humans estimated from mouse biodistribution data by using a dedicated software (OLINDA 1.0).

[1] = set-up: species or system KM mice; details: mouse, in vivo
Description: (§1) Female KM mice were randomly divided into three groups (n = 5). Each group was injected intravenously with 0.74 MBq ^177Lu-Palm-3PRGD2, ^177Lu-3PRGD2, or ^177Lu-Palm. Blood samples obtained from the canthus vein were collected at different time points post injection (p.i.), weighed, and evaluated using a γ-counter. The results are presented as the percentage injected activity per gram (%IA/g). Nonlinear regression (curve fit) followed by two phase decay was performed using GraphPad Prism version 9.0.0 for Windows, GraphPad Software, San Diego, CA, USA, www.graphpad.com (accessed on 22 May 2022). And then the half-lives values were calculated and determined.

[2] = set-up: species or system C57BL/6 mice; details: mouse, in vivo
Description: as §1, with “determined. Blood clearance studies were performed in normal KM mice. […] Blood clearance studies were also performed in C57BL/6 mice.” for “determined.”

| Structure (SMILES) | tissue uptake at 4 h (Biodistribution study) [%ID/g] | Blood AUC, times higher than ^177Lu-3PRGD2 [1] [times] | Circulation time in blood, times longer than ^177Lu-3PRGD2 [1] | Blood circulation time, times longer than ^177Lu-3PRGD2 [2] |
| --- | --- | --- | --- | --- |
| N=C(N)NCCC[C@@H]1NC(=O)[C@H](CCCCNC(=O)CCOCCOCCOCCOCCNC(=O)CC[C@H](NC(=O)CCOCCOCCOCCOCCNC(=O)CN2CCN(CC(=O)O)CCN(CC(=O)O)CCN(CC(=O)O)CC2)C(=O)NCCOCCOCCOCCOCCC(=O)NCCCC[C@@H]2NC(=O)[C@@H](Cc3ccccc3)NC(=O)[C@H](CC(=O)O)NC(=O)CNC(=O)[C@H](CCCNC(=N)N)NC2=O)NC(=O)[C@@H](Cc2ccccc2)NC(=O)[C@H](CC(=O)O)NC(=O)CNC1=O [^177Lu-3PRGD2, [^177Lu]Lu-DOTA-3PRGD2, metal not drawn] | 4.91 | – | – | – |
| CCCCCCCCCCCCCCCC(=O)N[C@@H](CCC(=O)NCCCC[C@H](NC(=O)CN1CCN(CC(=O)O)CCN(CC(=O)O)CCN(CC(=O)O)CC1)C(=O)NCCOCCOCCOCCOCCC(=O)N[C@@H](CCC(=O)NCCOCCOCCOCCOCCC(=O)NCCCC[C@@H]1NC(=O)[C@@H](Cc2ccccc2)NC(=O)[C@H](CC(=O)O)NC(=O)CNC(=O)[C@H](CCCNC(=N)N)NC1=O)C(=O)NCCOCCOCCOCCOCCC(=O)NCCCC[C@@H]1NC(=O)[C@@H](Cc2ccccc2)NC(=O)[C@H](CC(=O)O)NC(=O)CNC(=O)[C@H](CCCNC(=N)N)NC1=O)C(=O)O [^177Lu-Palm-3PRGD2, [^177Lu]Lu-DOTA-Palm-3PRGD2, metal not drawn] | – | ~10 | more than 6 times | 4–6 times |
